# Source: paper PMC7819943, “Rice protein-binding microarrays: a tool to detect cis-acting elements near promoter regions in rice”
# Protein sequences, listed by entry. Tags and fused reporters are not part of them.
# UniProt Q0JBA9, entry or part of it: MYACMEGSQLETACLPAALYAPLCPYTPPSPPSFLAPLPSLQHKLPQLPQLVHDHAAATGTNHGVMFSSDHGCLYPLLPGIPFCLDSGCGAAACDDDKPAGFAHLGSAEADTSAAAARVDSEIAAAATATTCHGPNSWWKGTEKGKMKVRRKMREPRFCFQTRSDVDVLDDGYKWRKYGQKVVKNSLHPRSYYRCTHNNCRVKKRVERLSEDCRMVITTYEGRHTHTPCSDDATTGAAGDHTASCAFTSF
# The list shows a part of the results.
# Biological target: OsWRKY34 (Oryza sativa, UniProt Q0JBA9 1-250)
# Assay: protein-binding microarray (RPBM); PBS, 2% BSA, 51.3 ng/ul salmon testes DNA, 50 uM zinc acetate, 200 nM TF, 25 C, 1 h; high values mean tight binding
# Conditions: protein: recombinant; tags: N-terminal polyhistidine and DsRed monomer fusion (pET32a); label: CyDye5-dUTP incorporated in the synthesized complementary strand; 3' TTTTT single-stranded linker to array surface; dsDNA, one strand shown
# How it was run: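 Using Ni–NTA, transcription factors fused N-terminally to polyhistidine and DsRed were purified after expression in E. coli BL21-CodonPlus. These were incubated at 200 nM with a blocked, double-stranded custom Agilent array for 1 h at 25 °C in a buffer containing 50 µM zinc acetate, and the array was washed. The binding signal is per-feature fluorescence intensity (arbitrary units) on an Axon 4000B scanner.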
row,Sequence,binding signal
1,TGTACGGTTTTTCACGGTTACCGCGCGGTAACCGTGCTTACGGAGTCACCTAGTGCAG,8410 fluorescence intensity (a.u.)
2,TGTTTATCATTTTGCTGGATTCTGTTCATACTTTTGCTTTCGGAGTCACCTAGTGCAG,10300 fluorescence intensity (a.u.)
3,GATTTGTATTGGTTTTAATAGTAGGGGAATTTCTATACCTCGGAGTCACCTAGTGCAG,8140 fluorescence intensity (a.u.)
4,TGACTCCCTCAGCGGTTTTGGATGGCGGTTTTGCTGATGTCGGAGTCACCTAGTGCAG,10200 fluorescence intensity (a.u.)
5,TCTCTCGTCGGCTCGTCGCCGGCGCGCCACCTCCGCCGCCCGGAGTCACCTAGTGCAG,9020 fluorescence intensity (a.u.)
6,CATCCATAGTTCTCTCCGTTCTCCAGCGACCACTGTTCCACGGAGTCACCTAGTGCAG,10500 fluorescence intensity (a.u.)
7,GCTTCTTCCATCTGCTCTTTTGTTGCGCCCTGATTCTGCACGGAGTCACCTAGTGCAG,10100 fluorescence intensity (a.u.)
8,CCCGTGTTCTTGTACCAAACCTCGACGCGAACGTCCTCGACGGAGTCACCTAGTGCAG,8640 fluorescence intensity (a.u.)
9,ATCCATCCATCCATCTGCCGCAAATCTCCTCGTCGTTTCGCGGAGTCACCTAGTGCAG,8580 fluorescence intensity (a.u.)
10,CTCTCTTTTTAACTGCTGTTCGTGTTCTTCTCTGCCGCCACGGAGTCACCTAGTGCAG,8590 fluorescence intensity (a.u.)
11,AAAAGCCCAGCAACCACCACGAAACCCACGCGAAACACACCGGAGTCACCTAGTGCAG,8230 fluorescence intensity (a.u.)
12,CACAACAAGCGATACAACCTACCACTGCATCATAACACCACGGAGTCACCTAGTGCAG,8910 fluorescence intensity (a.u.)
13,CACCCTCACCCTCGTCGCCAACCGCCCCGCCCTCGCGGTCCGGAGTCACCTAGTGCAG,9250 fluorescence intensity (a.u.)
14,GCGGTGGAGGGCCGGCGGAGAGGGGAGCAGCGGTGGAGGGCGGAGTCACCTAGTGCAG,11000 fluorescence intensity (a.u.)
15,GATATTTATGATCCTGTTACCATTTCGAGCCTTACTGTTTCGGAGTCACCTAGTGCAG,13200 fluorescence intensity (a.u.)
16,CGTTCGTTTTTTCCTTCTTTGCAGCCGCTACCAGCTCCCACGGAGTCACCTAGTGCAG,9020 fluorescence intensity (a.u.)
17,ACTCTGGGTTTCCGTGTCCAATTTTGACTGTCCGTCTTATCGGAGTCACCTAGTGCAG,11700 fluorescence intensity (a.u.)
18,GAGTCTACTGGCAAAATTTTGCTCTCTATTTTTTTTTTCTCGGAGTCACCTAGTGCAG,8370 fluorescence intensity (a.u.)
19,TTTGCTTACTCTCTCCGCCCTCCTAAACCCTACGACCATGCGGAGTCACCTAGTGCAG,8870 fluorescence intensity (a.u.)
20,GTGTGGCCCACTTCCGGACCCCAACAACCAACCAAAACCTCGGAGTCACCTAGTGCAG,9140 fluorescence intensity (a.u.)
21,CCACAGCTCCGGCCTTTTTATTTTTAATTTTTTTTAATTACGGAGTCACCTAGTGCAG,8670 fluorescence intensity (a.u.)

row,Sequence,binding signal
1,ATGATCGTTTATCCAGTGTCCTATAATGCTCCTATATTCACGGAGTCACCTAGTGCAG,11000 fluorescence intensity (a.u.)
2,TTCCGGTTTTCTGATATTTTCGATATTGTTTTCATTTCCGCGGAGTCACCTAGTGCAG,15500 fluorescence intensity (a.u.)
3,CTCTCTCTCTCTCTTTCCTCTCGCTATCGCCGTATCTCTCCGGAGTCACCTAGTGCAG,11800 fluorescence intensity (a.u.)
4,TCAAACTGACTGGCACGCTCGCATCTCATCAATCGTTGGACGGAGTCACCTAGTGCAG,9580 fluorescence intensity (a.u.)
5,ACCCCGACCGCCGGCCCAAAATCCTCATTGCTTGTAGTAGCGGAGTCACCTAGTGCAG,8650 fluorescence intensity (a.u.)
6,CAAGAGTCTGTCCACGTCGGTCTTTTAGCTCTTTCTGTAACGGAGTCACCTAGTGCAG,8210 fluorescence intensity (a.u.)
7,TTAGCATCCCGGCGGTCTCACCTGTCATCTCATCTCATCTCGGAGTCACCTAGTGCAG,13500 fluorescence intensity (a.u.)
8,ATGTTAAATTAGTCTTAGTGCTTCCACCCTAGTAAACAACCGGAGTCACCTAGTGCAG,8320 fluorescence intensity (a.u.)
9,TCTAAAAATCTAGCTGCATTTCACATTTCATCATCCTCCTCGGAGTCACCTAGTGCAG,8360 fluorescence intensity (a.u.)
10,CGTCCCTTTCGCCCAGCACCTTGTCGGAGACCGACGCGCCCGGAGTCACCTAGTGCAG,9110 fluorescence intensity (a.u.)
11,CCGCACGATATTCTTGACATCCCCTTGTCTCATTTGCACACGGAGTCACCTAGTGCAG,8800 fluorescence intensity (a.u.)
12,ACTAGTCGTCTCGTCGTGCTGCGCACTCGCCCCATCGACGCGGAGTCACCTAGTGCAG,8620 fluorescence intensity (a.u.)
13,GTTTGACCAGATGCTTTCAATTTCCTATGACTCATTTATTCGGAGTCACCTAGTGCAG,10200 fluorescence intensity (a.u.)
14,TCTCCACCACTCGTTGACCAGCTATCTTCCTCTTGCCTTCCGGAGTCACCTAGTGCAG,16000 fluorescence intensity (a.u.)
15,ACAAGCCCTGAACGATGCATTCACACGGATCAATTAACACCGGAGTCACCTAGTGCAG,8230 fluorescence intensity (a.u.)
16,ATCCCAAGCTATATATATACTCATCTGATCCATTTCCTCCCGGAGTCACCTAGTGCAG,10400 fluorescence intensity (a.u.)
17,CCTAAAGATCAGCATTTAAAATATTTTTCGTGTATTTTCCCGGAGTCACCTAGTGCAG,8600 fluorescence intensity (a.u.)
18,TGACCGGTTTTGTTTAGTTAAGTGACCTCGCATATCTGTTCGGAGTCACCTAGTGCAG,9570 fluorescence intensity (a.u.)
19,GACACAAAACGCATGTCCCAACTCCCAGGTTCCATTTCCCCGGAGTCACCTAGTGCAG,8220 fluorescence intensity (a.u.)
20,TGGTGAGGGCTCGTTTTGTTTCTTGAGATCAGTTGGTATTCGGAGTCACCTAGTGCAG,8140 fluorescence intensity (a.u.)
21,CCCATCGCCTAGCTGCTTCGCCGTTTATTTTAAGATTTTTCGGAGTCACCTAGTGCAG,9040 fluorescence intensity (a.u.)
